In patent US20250215371A1, “MOTOR UNIT CHIP, MANUFACTURING METHOD THEREOF AND METHOD OF DETECTING PATHOLOGICAL EVENT USING THE SAME” (Taipei Medical University, priority 2023, published 2025):
For at least one compound, name, drawing or mass did not settle the structure.

What was measured:
[1] = tested on: myotubes; test: Calcium imaging (fura-2) of myotubes in the motor unit chip; type: cell-based, mouse; settings: 10 μM ACh; at least two independent experiments
Experimental: Tri-cultures on 12.5 mm glass coverslips were briefly washed in HEPES Hanks' Buffer Solution (HHBS) (5.6 mM glucose, 20 mM Hepes, 3 mM NaHCO3, 0.3 mM Na2HPO4, 0.4 mM KH2PO4, 137 mM NaCl, 5.0 mM KCl, […], 4.1 mM MgSO4, 1.26 mM CaCl2, pH=7.4) and then the coverslip was incubated with fura-2 AM in 0.04% pluronic acid dissolved in HHBS to a final concentration of 20 μM for 30 mins at 37° C. After loading indicator, coverslips were washed in fresh HBSS for 10 mins at 37° C. and then transferred to an imaging chamber for microscopy experiments. Fura-2 imaging was performed on an Olympus IX71 microscope using a 20× objective lens. […] Intracellular Ca^2+ concentration ([Ca^2+]i) was monitored by sequential excitation (1 Hz) of fura-2 at 340 and 380 nm. […]
Images were processed using MetaFluor Analyst to draw regions of interest (ROIs), subtract background, and generate 340/380 ratios. […] Criterion “1” was empirically determined to exclude cells with poor signal to noise ratio. […]
Data were analyzed using the Student's t test. […] For statistical analyses of calcium image, MN and myotube data were assessed for normality using the D′Agostino-Pearson normality test. […] Percent responders was calculated using number of responders/total MNs or myotubes in the field.

[2] = tested on: Schwann cells; test: Calcium imaging (fura-2) of Schwann cells in the tri-culture; type: cell-based, mouse; settings: 50 mM extracellular K^+ or 10 μM ACh
Experimental: After loading indicator, coverslips were washed in fresh HBSS for 10 mins at 37° C. and then transferred to an imaging chamber for microscopy experiments. Fura-2 imaging was performed on an Olympus IX71 microscope using a 20× objective lens. Excitation wavelength was selected with a galvanometer-driven monochromator (8 nm slit width) coupled to a 75 W xenon arc lamp (Optoscan; Cairn Research). […] A single image was acquired at 610 nm to identify mApple expressing MNs in the field. Fluorescent images were captured using a cooled charge-coupled device camera (Cascade 512B; Roper Scientific) and Metafluor acquisition software (Molecular Devices). All fura-2 experiments were performed in HBSS buffer at room temperature. To depolarize MNs the extracellular K^+ concentration was increased to 50 mM with K^+ exchanged reciprocally for Na+in HHBS. For myotube stimulation 10 μM ACh was applied by bath perfusion. A 60 s baseline in HHBS was acquired before stimulation of each coverslip. High K^+ was applied for 30 s and ACh for 1 min. After stimulus application, a washout of 60 s was performed. Background images were acquired after each experiment; the coverslip was wiped clean, then 20 frames were acquired using the same parameters as above. Images were processed using MetaFluor Analyst to draw regions of interest (ROIs), subtract background, and generate 340/380 ratios. […]

Compound: CC(=O)OCC[N+](C)(C)C [ACh, acetylcholine]
- physical contraction of myotubes when stimulated with ACh [1]: exhibited physical contraction
- changes in [Ca^2+]i in Schwann cells [2]: did not show any changes in [Ca^2+]i
